Measurements reported in PubChem BioAssay AID1259308 (NCATS, 2017)
Shown is an unselected part of about 59,000 reagents tested. About 1,510 of them (2.6%) were called active. 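Calls use total luciferase alone and ignore viability, so some active siRNAs may act by altering cell number.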 Reagents against one gene are numbered here.

- Assay: 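Candidate targets for better recombinant protein yield in mammalian cells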 (primary screen)
- Cells: human HEK293 embryonic kidney cells stably expressing firefly luciferase (HEK-CMV-Luc2-Hygro)
- Reagents: single siRNA against human genes, 0.8 pmol siRNA per well
- Time to read-out: 72 h
- Measured: 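Luciferase light (ONE-Glo) measured on one replicate plate set and viability (CellTiter-Glo) on the other, scaled to a negative control siRNA, with robust z-scores and luciferase per cell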
- Scale: total luciferase, z-score and total luciferase, % of control: higher = more reporter protein produced; luciferase per cell, z-score: higher = more reporter output per viable cell; viable cells, % of control: higher = more viable cells
- Active means: 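Active when the median/MAD z-score for overall luciferase is greater than 3; a gene was taken forward for validation with new siRNAs if at least two of its three siRNAs passed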
- Meaning of the calls: active = raised luciferase; inactive = no rise

| gene knocked down | siRNA no. | total luciferase, z-score | total luciferase, % of control | luciferase per cell, z-score | viable cells, % of control | activity call |
| --- | --- | --- | --- | --- | --- | --- |
| TBC1D21 | 1 | 0.855 | 98.9 | 1.35 | 77.4 | inactive |
| TBC1D21 | 2 | 0.953 | 101 | 0.779 | 91.8 | inactive |
| TBC1D21 | 3 | 1.02 | 102 | 1.11 | 85.3 | inactive |
| ZNF121 | 1 | 1.48 | 111 | 1.96 | 74.3 | inactive |
| ZNF121 | 2 | -0.0969 | 80 | -0.803 | 110 | inactive |
| ZNF121 | 3 | 0.606 | 93.9 | 0.0127 | 105 | inactive |
| CPA6 | 1 | 0.0448 | 82.8 | 0.503 | 81 | inactive |
| CPA6 | 2 | -0.202 | 77.9 | -0.918 | 111 | inactive |
| CPA6 | 3 | 2.72 | 136 | 2.05 | 88.6 | inactive |
| SLC16A12 | 1 | -0.322 | 75.5 | -0.461 | 95.3 | inactive |
| SLC16A12 | 2 | 3.37 | 149 | 2.84 | 78.8 | active |
| SLC16A12 | 3 | 2.65 | 135 | 1.53 | 101 | inactive |
| MST1R | 1 | -1.8 | 46.1 | -1.26 | 71.9 | inactive |
| MST1R | 2 | 1.29 | 107 | 0.524 | 105 | inactive |
| MST1R | 3 | -1.15 | 59.1 | -0.828 | 82.1 | inactive |
| RPS17 | 1 | -0.186 | 78.2 | -0.419 | 97.6 | inactive |
| RPS17 | 2 | -2.18 | 38.5 | -0.115 | 44.3 | inactive |
| RPS17 | 3 | -2.12 | 39.7 | -2.42 | 83.9 | inactive |
| KXD1 | 1 | -0.232 | 77.3 | 0.286 | 80.1 | inactive |
| KXD1 | 2 | -1.26 | 56.9 | -0.561 | 73.7 | inactive |
| KXD1 | 3 | -0.825 | 65.5 | -0.983 | 94.8 | inactive |
| ZFP69B | 1 | 0.675 | 95.3 | 0.349 | 97.1 | inactive |
| ZFP69B | 2 | -0.554 | 70.9 | -0.866 | 99.5 | inactive |
| ZFP69B | 3 | 0.644 | 94.7 | 0.431 | 94.4 | inactive |
| C1orf56 | 1 | -0.364 | 74.6 | -0.574 | 97 | inactive |
| C1orf56 | 2 | -0.0405 | 81.1 | -0.385 | 100 | inactive |
| C1orf56 | 3 | 3.66 | 155 | 2.9 | 80.5 | active |
| ZNF251 | 1 | 0.904 | 99.9 | 0.745 | 91.7 | inactive |
| ZNF251 | 2 | 0.363 | 89.1 | 0.944 | 77.7 | inactive |
| ZNF251 | 3 | -0.512 | 71.7 | -0.747 | 97.5 | inactive |
| COBL | 1 | -0.295 | 76 | -0.27 | 91.2 | inactive |
| COBL | 2 | -1.96 | 42.9 | -2.39 | 89.9 | inactive |
| COBL | 3 | -1.04 | 61.3 | -1.32 | 96.8 | inactive |
| IDH3A | 1 | 0.0158 | 82.2 | -0.219 | 97.3 | inactive |
| IDH3A | 2 | 0.563 | 93.1 | 0.0685 | 102 | inactive |
| IDH3A | 3 | -0.855 | 64.9 | -0.592 | 84.7 | inactive |
| LNP1 | 1 | 0.51 | 92 | 0.322 | 94.5 | inactive |
| LNP1 | 2 | -0.536 | 71.2 | -0.449 | 89.6 | inactive |
| LNP1 | 3 | 0.987 | 102 | 0.162 | 109 | inactive |
| LDHB | 1 | 1.14 | 105 | -0.105 | 120 | inactive |
| LDHB | 2 | -0.511 | 71.7 | 1.28 | 57.2 | inactive |
| LDHB | 3 | -0.707 | 67.8 | -0.1 | 77.8 | inactive |
| SLC20A1 | 1 | -0.41 | 73.7 | 0.322 | 75.7 | inactive |
| SLC20A1 | 2 | -1.63 | 49.4 | -1.16 | 75 | inactive |
| SLC20A1 | 3 | 0.547 | 92.8 | 0.321 | 95.3 | inactive |
| PPP1R21 | 1 | -0.647 | 69 | 0.345 | 70.4 | inactive |
| PPP1R21 | 2 | 1.01 | 102 | 0.786 | 92.6 | inactive |
| PPP1R21 | 3 | 2.05 | 123 | 1.78 | 85.8 | inactive |
| PAQR7 | 1 | 3.75 | 157 | 3.8 | 64.3 | active |
| PAQR7 | 2 | 1.51 | 112 | 2.12 | 71.6 | inactive |
| PAQR7 | 3 | 1.36 | 109 | 1 | 93.5 | inactive |
| OR5M3 | 1 | 0.296 | 87.8 | 0.0614 | 96.5 | inactive |
| OR5M3 | 2 | 1.14 | 105 | 0.926 | 91.6 | inactive |
| OR5M3 | 3 | -0.0526 | 80.8 | 0.11 | 87.8 | inactive |
| CD109 | 1 | -0.612 | 69.7 | -0.896 | 98.6 | inactive |
| CD109 | 2 | 0.823 | 98.3 | 0.315 | 101 | inactive |
| CD109 | 3 | -0.392 | 74.1 | -0.814 | 103 | inactive |
